Data on two substances can be found in patent publication US20100310459A1 (THE REGENTS OF THE UNIVERSITY OF MICHIGAN, priority 2009, published 2010).

The nature of this data set: general procedure: Fmoc solid-phase peptide synthesis. Conditions: whole synthesis, reverse phase HPLC and mass spectrometry.

As to NLMPYFS-GGGSK (NLMPYFSGGGSK), the “final HPLC purity” value was “minimum of 90% purity”.

On to “SNFYMPL-GGGSK-FITC (SNFYMPLGGGSK; C-terminal FITC)”, for which the “final HPLC purity” value was “minimum of 90% purity”.
